± gives the standard deviation of the averaged measurements. Most entries show no effect beyond the scatter of the controls.
Legend:
Assay in all cases: level (log10 ratio to DMSO vehicle control); higher = higher biomarker level / cell amount than vehicle control
[1] = compound: FC(F)(F)C(F)(F)CNCC(F)(F)C(F)(F)F [Bis(1H,1H-perfluoropropyl)amine] (in DMSO); conditions: 2200 nM
Protocol: (§1)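 BioMAP Diversity Plus panel of 12 human primary cell co-culture systems (3C, 4H, LPS, SAg, BT, BF4T, BE3C, CASM3C, HDF3CGF, KF3CT, MyoF, Mphg). Compounds were added 1 h before stimulation and left for 24 h (MyoF 48 h; BT 72 h for soluble read-outs or 6 d for IgG). Biomarkers were read by ELISA, cytotoxicity by SRB, PBMC viability and proliferation by Alamar Blue. Each well value was divided by the mean of 8 DMSO control wells on the same plate and log10 transformed; duplicate blinded samples were tested at 4 concentrations.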

Perfluorohexanoic acid = compound: O=C(O)C(F)(F)C(F)(F)C(F)(F)C(F)(F)C(F)(F)F [Perfluorohexanoic acid] (in DMSO)
Protocol: as §1

[2] = compound: FC(F)(F)C(F)(F)C(F)(F)C(F)(F)CCI [1H,1H,2H,2H-Perfluorohexyl iodide] (in DMSO); conditions: 2200 nM
Protocol: as §1

Hexafluoroglutaric acid = compound: O=C(O)C(F)(F)C(F)(F)C(F)(F)C(=O)O [Hexafluoroglutaric acid] (in DMSO)
Protocol: as §1

[3] = compound: O=C(O)C(F)(OC(F)(F)C(F)(F)C(F)(F)F)C(F)(F)F [Ammonium perfluoro-2-methyl-3-oxahexanoate] (in Water)
Protocol: as §1

[4] = compound: FC(F)(F)COC(OCC(F)(F)F)OCC(F)(F)F [tris(Trifluoroethoxy)methane] (in DMSO); conditions: 2200 nM
Protocol: as §1

[5] = compound: OCCCC(F)(F)C(F)(F)C(F)(F)C(F)(F)C(F)(F)C(F)(F)C(F)(F)C(F)(F)F [3-(Perfluorooctyl)propanol] (in DMSO); conditions: 2200 nM
Protocol: as §1

[6] = compound: OCC(F)(F)OC(F)(F)C(F)(F)OC(F)(F)CO [1H,1H,8H,8H-Perfluoro-3,6-dioxaoctane-1,8-diol] (in DMSO); conditions: 2200 nM
Protocol: as §1

[7] = compound: O=C(O)CCC(F)(F)C(F)(F)C(F)(F)F [3:3 Fluorotelomer carboxylic acid] (in DMSO); conditions: 2200 nM
Protocol: as §1

[8] = compound: OCC(F)(F)C(F)(F)C(F)(F)C(F)F [1H,1H,5H-Perfluoropentanol] (in DMSO); conditions: 2200 nM
Protocol: as §1

[9] = compound: O=S(=O)(O)C(F)(F)C(F)(F)C(F)(F)C(F)(F)F [Perfluorobutanesulfonic acid] (in DMSO)
Protocol: as §1

[10] = compound: OCC(F)(F)C(F)(F)C(F)(F)C(F)(F)C(F)(F)C(F)(F)CO [1H,1H,8H,8H-Perfluorooctane-1,8-diol] (in DMSO); conditions: 2200 nM
Protocol: as §1

[11] = compound: C=C(C)C(=O)OCCC(F)(F)C(F)(F)C(F)(F)C(F)(F)C(F)(F)C(F)(F)F [6:2 Fluorotelomer methacrylate] (in DMSO); conditions: 2200 nM
Protocol: as §1

[12] = compound: CNS(=O)(=O)C(F)(F)C(F)(F)C(F)(F)C(F)(F)C(F)(F)C(F)(F)C(F)(F)C(F)(F)F [N-Methylperfluorooctanesulfonamide] (in DMSO); conditions: 2200 nM
Protocol: as §1

[13] = compound: O=C(O)C(F)(F)C(F)(F)C(F)(F)OC(F)(C(F)(F)F)C(F)(F)F [Perfluoro-4-isopropoxybutanoic acid] (in DMSO); conditions: 2200 nM
Protocol: as §1

[14] = compound: OCC(F)(F)C(F)(F)C(F)(F)C(F)(F)C(F)(F)C(F)(F)F [6:1 Fluorotelomer alcohol] (in DMSO); conditions: 2200 nM
Protocol: as §1

[15] = compound: O=C(O)C(F)(OC(F)(F)C(F)(OC(F)(F)C(F)(OC(F)(F)C(F)(F)C(F)(F)F)C(F)(F)F)C(F)(F)F)C(F)(F)F [Perfluoro-(2,5,8-trimethyl-3,6,9-trioxadodecanoic)acid] (in DMSO); conditions: 370 nM
Protocol: as §1

| Test System | level (log10) [1] | level (log10) (Perfluorohexanoic acid; 2200 nM) | level (log10) (Perfluorohexanoic acid; 6700 nM) | level (log10) (Perfluorohexanoic acid; 20000 nM) | level (log10) (Perfluorohexanoic acid; 60000 nM) | level (log10) [2] | level (log10) (Hexafluoroglutaric acid; 2200 nM) | level (log10) (Hexafluoroglutaric acid; 6700 nM) | level (log10) (Hexafluoroglutaric acid; 20000 nM) | level (log10) (Hexafluoroglutaric acid; 60000 nM) | level (log10) ([3]; 2200 nM) | level (log10) ([3]; 6700 nM) | level (log10) ([3]; 20000 nM) | level (log10) ([3]; 60000 nM) | level (log10) [4] | level (log10) [5] | level (log10) [6] | level (log10) [7] | level (log10) [8] | level (log10) ([9]; 2200 nM) | level (log10) ([9]; 6700 nM) | level (log10) ([9]; 20000 nM) | level (log10) ([9]; 60000 nM) | level (log10) [10] | level (log10) [11] | level (log10) [12] | level (log10) [13] | level (log10) [14] | level (log10) [15] |
| --- | --- | --- | --- | --- | --- | --- | --- | --- | --- | --- | --- | --- | --- | --- | --- | --- | --- | --- | --- | --- | --- | --- | --- | --- | --- | --- | --- | --- | --- |
| CASM3C:PAI-I | -0.0055 ± 0.011 | 0.001 ± 0.0099 | 0.0005 ± 0.005 | -0.003 ± 0.0042 | 0.0095 ± 0.005 | 0.0195 ± 0.0035 | 0 ± 0.016 | -0.0015 ± 0.015 | -0.0005 ± 0.0064 | 0.0075 ± 0.0064 | 0.0015 ± 0.0035 | -0.007 ± 0.0085 | -0.0005 ± 0.0092 | -0.0025 ± 0.013 | 0.0055 ± 0.016 | -0.0115 ± 0.005 | 0.01 ± 0.0014 | 0 ± 0.0099 | 0.014 ± 0.013 | 0.003 ± 0.0042 | -0.0095 ± 0.012 | 0.0035 ± 0.0064 | 0.007 ± 0.0099 | -0.003 ± 0.017 | -0.0015 ± 0.0021 | 0.0105 ± 0.018 | 0.0165 ± 0.011 | 0.0025 ± 0.0021 | 0.001 ± 0.0085 |
| LPS:CXCL8/IL-8 | 0.0125 ± 0.036 | 0.0135 ± 0.023 | 0.0035 ± 0.016 | 0.011 ± 0.0028 | 0.0575 ± 0.0035 | 0.0345 ± 0.016 | -0.024 ± 0.014 | -0.0235 ± 0.012 | -0.0535 ± 0.018 | -0.028 ± 0.067 | 0.0265 ± 0.0064 | 0.023 ± 0.031 | 0.0895 ± 0.016 | 0.131 ± 0.017 | 0 ± 0.05 | 0.0085 ± 0.018 | 0.012 ± 0.013 | -0.0065 ± 0.028 | -0.012 ± 0.033 | 0.014 ± 0.025 | 0.0225 ± 0.019 | 0.0125 ± 0.021 | 0.0765 ± 0.00071 | 0.0205 ± 0.021 | 0.033 ± 0.059 | 0.0045 ± 0.042 | 0.0315 ± 0.04 | -0.001 ± 0.021 | 0.0215 ± 0.025 |
| HDF3CGF:CXCL11/I-TAC | -0.0015 ± 0.0021 | -0.021 ± 0.054 | 0.0045 ± 0.005 | 0.0005 ± 0.021 | -0.021 ± 0.031 | 0.0095 ± 0.021 | -0.0065 ± 0.005 | 0.014 ± 0.0014 | -0.011 ± 0.072 | -0.0115 ± 0.061 | -0.0015 ± 0.005 | 0.002 ± 0.0057 | -0.0045 ± 0.019 | 0.002 ± 0.0099 | -0.0155 ± 0.011 | -0.023 ± 0.033 | 0.0195 ± 0.012 | -0.0025 ± 0.013 | -0.0065 ± 0.049 | -0.001 ± 0.037 | -0.0235 ± 0.00071 | 0.005 ± 0.0028 | -0.005 ± 0.0014 | -0.004 | -0.009 ± 0.016 | -0.0145 ± 0.0021 | 0.018 ± 0.0057 | -0.013 ± 0.016 | 0.0035 ± 0.036 |
| BT:sIL-6 | 0.0245 ± 0.011 | -0.0255 ± 0.052 | -0.0375 ± 0.079 | 0.013 ± 0.062 | -0.037 ± 0.021 | 0.053 ± 0.024 | 0.023 ± 0.02 | -0.0105 ± 0.11 | 0.0275 ± 0.021 | -0.0155 ± 0.088 | -0.0995 ± 0.083 | -0.0915 ± 0.0035 | -0.0905 ± 0.021 | -0.151 ± 0.014 | -0.0005 ± 0.039 | 0.0475 ± 0.06 | 0.003 ± 0.11 | 0.017 ± 0.016 | 0.009 ± 0.055 | -0.0185 ± 0.0021 | -0.035 ± 0.061 | 0.004 ± 0.067 | 0.012 ± 0.02 | -0.0075 ± 0.021 | 0.0025 ± 0.047 | 0.0035 ± 0.03 | 0.027 ± 0.025 | -0.044 ± 0.062 | -0.0385 ± 0.079 |
| LPS:SRB | 0.0055 ± 0.0035 | -0.004 ± 0.014 | -0.013 ± 0.0071 | -0.009 | -0.0065 ± 0.0078 | 0.0115 ± 0.019 | -0.002 ± 0.018 | -0.0025 ± 0.011 | -0.0065 ± 0.016 | 0.01 ± 0.025 | -0.013 ± 0.0028 | -0.009 ± 0.0028 | -0.0075 ± 0.00071 | -0.009 ± 0.0014 | 0.0005 ± 0.005 | 0.0035 ± 0.016 | -0.003 ± 0.018 | 0.004 ± 0.014 | -0.006 ± 0.013 | 0.009 ± 0.02 | 0.0065 ± 0.011 | 0.004 ± 0.0057 | 0.002 ± 0.0057 | 0.007 ± 0.014 | 0.0035 ± 0.015 | 0.0065 ± 0.0035 | -0.008 ± 0.0042 | -0.001 ± 0.0071 | -0.002 ± 0.016 |
| LPS:CD142/Tissue Factor | 0.051 ± 0.072 | 0.0175 ± 0.025 | 0.0205 ± 0.021 | 0.0045 ± 0.011 | 0.015 ± 0.0071 | 0.027 ± 0.0071 | 0.021 ± 0.073 | 0.0325 ± 0.08 | -0.0085 ± 0.077 | -0.0285 ± 0.081 | 0.081 ± 0.033 | 0.0885 ± 0.064 | 0.0845 ± 0.028 | 0.075 ± 0.045 | 0.034 ± 0.1 | -0.0315 ± 0.0092 | -0.0045 ± 0.0092 | -0.019 ± 0.011 | 0.014 ± 0.014 | 0.0575 ± 0.0078 | 0.016 ± 0.038 | -0.0155 ± 0.039 | -0.0175 ± 0.016 | -0.025 ± 0.0085 | 0.003 ± 0.071 | -0.004 ± 0.027 | 0.039 ± 0.018 | -0.0065 ± 0.011 | 0.001 ± 0.0028 |
| CASM3C:CD87/uPAR | -0.022 ± 0.021 | 0.0185 ± 0.00071 | -0.003 ± 0.027 | 0.0085 ± 0.022 | -0.012 ± 0.0014 | -0.0085 ± 0.042 | -0.0225 ± 0.018 | -0.001 ± 0.014 | -0.0185 ± 0.033 | -0.0075 ± 0.0035 | 0.0175 ± 0.016 | -0.031 ± 0.076 | 0.0075 ± 0.011 | 0.014 ± 0.027 | -0.0195 ± 0.005 | -0.0295 ± 0.039 | -0.0005 ± 0.0021 | 0.0005 ± 0.0021 | 0.0115 ± 0.0092 | -0.015 ± 0.023 | -0.0275 ± 0.03 | -0.047 ± 0.045 | -0.0575 ± 0.0092 | -0.0155 ± 0.025 | -0.022 ± 0.0042 | -0.0025 ± 0.0092 | -0.0095 ± 0.033 | -0.021 ± 0.03 | -0.0035 ± 0.021 |

From the supplement of paper PMC10331698
